According to PubChem BioAssay AID540256 (National Center for Advancing Translational Sciences (NCATS), 2011):
Out of some 300,000 compounds screened, about 3,700 (1.2%) were called active. The inconclusive results got no clear call from the source; some entries with a clear call stand among them for comparison. Calls come from the whole dose curve; tested in HEK293 cells. Potencies beside an inconclusive call are fits to weak or partial responses and may not hold up.

test: qHTS for Inhibitors of binding or entry into cells for Lassa Virus; details: Lassa virus pseudotype entry inhibition, cell reporter; series mostly up to 37.9 µM; note: nearly all actives have a fitted effect of over 50% in size
Potency is the fitted concentration of half-maximal effect.

SMILES	Potency
Cn1nnc2c(N3CCN(c4cccc(Cl)c4)CC3)ncnc21	inconclusive: 35.5 µM [inhibitor, single point]
O=C(Cn1c(-c2ccccc2)c[n+]2ccsc12)c1ccc([N+](=O)[O-])cc1	inactive
COc1ccsc1C(=O)N1CCN(Cc2ccc3c(c2)OCO3)CC1	inconclusive: 20.6 µM [activator, partial curve]
CCOCCCN(Cc1ccco1)S(=O)(=O)c1cc2c(cc1Cl)NC(=O)CO2	inactive
Cc1ccc(C)c(S(=O)(=O)Nc2ccc(-n3cnnn3)cc2)c1	inactive
O=C(Nc1nnc(N2CCCCCC2)s1)Nc1cc(F)ccc1F	inactive
CCOc1ccc(S(=O)(=O)N2CCC(C(=O)N3CCN(c4ccccc4F)CC3)CC2)cc1C	active: 7.08 µM
CC(C)c1ccc(CN(C(=O)c2cccs2)C2CCS(=O)(=O)C2)cc1 (centres undefined)	inconclusive: 7.94 µM [inhibitor, partial curve, poor fit]
CCCn1nnc(NC(=O)c2ccc3c(c2)OCO3)n1	inactive
CCOc1ccc(CCNC(=O)C2CCN(C(=O)N3CC(CC)Oc4ccccc43)CC2)cc1 (centres undefined)	inconclusive: 22.4 µM [inhibitor, single point]
CCCCN(CC)CCCNC(=O)CS(=O)(=O)Cc1nc(-c2ccc(C)cc2)oc1C	inconclusive: 1.78 µM [activator, partial curve, poor fit]
CCC/C(=N\NC(=O)c1cccc(C)c1)c1ccccc1	inconclusive: 29.1 µM [activator, single point]
Nc1nnc(SCc2ccc3c(c2)OCO3)s1	inconclusive: 20.6 µM [activator, single point]
c1ccc2c(c1)Cc1cc(CN3CCOCC3)ccc1-2	inactive
Cc1c(Cl)cccc1NC(=O)N1CCN(C(=O)c2nsc3ccccc23)CC1	inconclusive: 11.2 µM [inhibitor, single point]
Cc1ccccc1Nc1cc(C(=O)NCCCN2CCN(c3cccc(Cl)c3)CC2)c2ccccc2n1	inconclusive: 35.5 µM [inhibitor, single point]
O=C(COC(=O)/C(=C/c1cccs1)c1cccs1)NC(c1ccccc1)c1ccccc1	inconclusive: 11.2 µM [inhibitor, partial curve]
CCOc1cccc(-c2nnc3sc(COc4ccc(C)cc4)nn23)c1	inconclusive: 22.4 µM [inhibitor, partial curve, poor fit]
Cc1ccc(SCCNC(=O)c2ccc(C)c(S(=O)(=O)Nc3cccc(C)c3)c2)cc1	inconclusive: 18.3 µM [inhibitor, single point]
Cc1ccc(N2C(=O)N(CC(=O)Nc3ccc(C)c(C)c3[N+](=O)[O-])C(=O)C2C)cc1 (centres undefined)	inactive
CC(C)CNC(=O)[C@H](Cc1ccccc1)NC(=O)c1cccs1	inactive
O=C(CSc1n[nH]c(-c2cccs2)n1)NCc1cccs1	inactive

SMILES	Potency
O=C(Nc1cccc(Cl)c1)C1C2CCC3C(CCC21)C3(Cl)Cl (centres undefined)	inconclusive: 22.4 µM [inhibitor, single point]
O=C1COc2ccc(C(=O)c3ccccc3C(=O)NCc3ccccc3)cc2N1	inconclusive: 2.59 µM [inhibitor, partial curve, poor fit]
Cc1cccc(-n2ncc(C(=O)N3CCOCC3)c2C2CCN(C(=O)OC(C)(C)C)CC2)c1	inconclusive: 1.41 µM [inhibitor, partial curve, poor fit]
Cc1ccc2nc(-c3ccc(NC(=O)CSc4nccc(=O)[nH]4)cc3)sc2c1	inconclusive: 10 µM [inhibitor, partial curve, poor fit]
Cc1ncsc1C(=O)N1N=C2/C(=C/c3ccc(N4CCOCC4)cc3)CCCC2C1c1ccc(N2CCOCC2)cc1 (centres undefined)	inactive
Cc1ccc(-c2nc(N(C)C3CCN(C)CC3)c3ccccc3n2)cc1	inconclusive: 29.1 µM [inhibitor, single point]
COc1ccc(NC(=O)O/N=C2/CCCc3ccc(OC)cc32)cc1	inconclusive: 13 µM [inhibitor, single point]
O=Nc1c(-c2c(O)[nH]c3ccccc23)[nH]c2ccccc12	inconclusive: 0.366 µM [activator, full curve]
CN(CC(=O)Nc1ccc(Cl)c(C(F)(F)F)c1)C(=O)CC1Sc2ccccc2NC1=O (centres undefined)	inconclusive: 25.1 µM [inhibitor, single point]
COc1ccc(OC)c(Nc2ncnc3ccccc23)c1	inactive
NC(=O)N/N=C\c1cc(Br)ccc1O	inactive
O=C(CN1C(=O)NC2(CCCCC2)C1=O)N1CCN(S(=O)(=O)c2cccc([N+](=O)[O-])c2)CC1	inconclusive: 0.501 µM [activator, partial curve, poor fit]
CC1CC(C)CN(C(=O)c2cc3ccccc3o2)C1 (centres undefined)	inactive
CN(C)CCNC(=O)C(=O)NCC(c1ccc2c(c1)OCO2)N1CCN(c2ccc(F)cc2)CC1 (centres undefined)	inconclusive: 14.1 µM [inhibitor, partial curve, poor fit]
COc1ccc(C2CC(=O)c3cc(OC)ccc3O2)cc1 (centres undefined)	inactive
Cn1c(=O)oc2cc(S(=O)(=O)NC(Cc3ccccc3)C(=O)Nc3ccc(F)cc3)ccc21 (centres undefined)	inconclusive: 3.98 µM [inhibitor, partial curve, poor fit]
COCCNc1c2c(nc3c(-c4ccccc4)c(C)nn13)CCCC2	inactive
CCn1c(C(=O)NCc2ccc(F)cc2)cc2oc3ccccc3c21	inconclusive: 2.51 µM [inhibitor, partial curve, poor fit]
O=C(CSc1ncn(-c2ccccc2)n1)Nc1ccc(Br)cn1	inactive
CCc1noc(C)c1C(=O)NNC(=O)c1ccccc1F	inconclusive: 12.6 µM [activator, partial curve, poor fit]
CCC(CC)c1nnc(NC(=O)c2ccc3ccccc3n2)s1	inconclusive: 2.51 µM [activator, partial curve, poor fit]
O=C(Nc1ccc2ccccc2n1)Nc1cccs1	inconclusive: 14.1 µM [activator, partial curve, poor fit]

A draw from above in order of SMILES length, rising:
SMILES	Potency
O=C(CSc1ncn(-c2ccccc2)n1)Nc1ccc(Br)cn1	inactive
O=C(Nc1cccc(Cl)c1)C1C2CCC3C(CCC21)C3(Cl)Cl (centres undefined)	inconclusive: 22.4 µM [inhibitor, single point]
Cn1c(=O)oc2cc(S(=O)(=O)NC(Cc3ccccc3)C(=O)Nc3ccc(F)cc3)ccc21 (centres undefined)	inconclusive: 3.98 µM [inhibitor, partial curve, poor fit]
